Assay results: paper doi:10.1101/566430
Where two headings read alike, the source gives them in different places. No constants are given. Whether binding was seen depends on the method and setting. Binding seen in cells or lysates may run through a third protein. Some results given as binding are weak or reduced against the parent protein; the word gives no strength. Where a sequence is shown, tags or fusion partners need not be part of it.

Protein sequences, listed by entry. Tags and fused reporters are not part of them. Lines headed by an entry give the natural chain unless they say otherwise; changes in a name come on top.
UniProt P31749, whole entry: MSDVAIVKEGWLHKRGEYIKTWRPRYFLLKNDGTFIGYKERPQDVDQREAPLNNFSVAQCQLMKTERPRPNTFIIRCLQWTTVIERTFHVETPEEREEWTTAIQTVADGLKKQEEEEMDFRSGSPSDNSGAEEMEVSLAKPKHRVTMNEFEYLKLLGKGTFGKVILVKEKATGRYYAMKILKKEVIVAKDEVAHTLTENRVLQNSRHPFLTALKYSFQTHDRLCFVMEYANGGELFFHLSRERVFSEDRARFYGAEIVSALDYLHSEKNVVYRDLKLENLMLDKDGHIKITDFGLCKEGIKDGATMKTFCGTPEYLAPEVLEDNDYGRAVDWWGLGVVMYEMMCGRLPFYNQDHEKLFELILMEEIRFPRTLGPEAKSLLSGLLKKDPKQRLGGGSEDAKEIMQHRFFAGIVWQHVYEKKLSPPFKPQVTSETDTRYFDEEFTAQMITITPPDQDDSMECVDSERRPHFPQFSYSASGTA

Experiments:
Test in all cases: FRET or BRET
[1] = molecular target: Isolated PH domain of PDK1, T513E (GFP- and mRFP-tagged) (human) (UniProt O15530)
[2] = molecular target: Isolated PH domain of PDK1, wild type (eGFP-myc-PH^PDK1 and mRFP-myc-PH^PDK1) (human) (UniProt O15530)
[3] = molecular target: mCherry-HA-PKB (Akt/PKB), P31749; details: remark: other sources report otherwise
[4] = molecular target: T1, 3'-Phosphoinositide-dependent kinase-1, wild type, full length (eGFP-myc-PDK1 and HA-PDK1-mCherry) (human), O15530; details: remark: other sources report otherwise
T1 chain: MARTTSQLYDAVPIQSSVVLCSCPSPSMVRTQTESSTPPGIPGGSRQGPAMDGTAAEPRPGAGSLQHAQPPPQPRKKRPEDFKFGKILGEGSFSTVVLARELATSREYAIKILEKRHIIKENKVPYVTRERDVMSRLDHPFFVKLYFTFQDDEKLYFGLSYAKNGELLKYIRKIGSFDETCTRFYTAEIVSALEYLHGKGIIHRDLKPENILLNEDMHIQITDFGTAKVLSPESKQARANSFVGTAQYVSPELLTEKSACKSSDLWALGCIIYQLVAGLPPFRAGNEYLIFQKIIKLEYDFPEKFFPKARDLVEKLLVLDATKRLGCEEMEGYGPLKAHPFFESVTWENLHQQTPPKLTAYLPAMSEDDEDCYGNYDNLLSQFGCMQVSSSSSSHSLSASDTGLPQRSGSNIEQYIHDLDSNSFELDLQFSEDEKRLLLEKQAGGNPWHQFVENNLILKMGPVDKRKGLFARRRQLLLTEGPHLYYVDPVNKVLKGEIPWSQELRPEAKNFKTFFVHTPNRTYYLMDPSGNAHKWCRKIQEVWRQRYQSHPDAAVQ

[5] = molecular target: T1, 3'-Phosphoinositide-dependent kinase-1, …; details: remark: other sources report otherwise
[6] = molecular target: mCherry-HA-PKB (Akt/PKB) (UniProt P31749)
[7] = molecular target: PDK1 T513E, full length (GFP- and mCherry-tagged) (human) (UniProt O15530)
[8] = molecular target: PDK1 T513E, full length (GFP- and mCherry-tagged) (human) (UniProt O15530); remark: listed apart in the source
[9] = molecular target: PDK1 K465A, full length (eGFP-myc-PDK1 K465A and HA-PDK1-mCherry K465A) (human) (UniProt O15530)
[10] = molecular target: PDK1 K465A, full length (eGFP-myc-PDK1 K465A and HA-PDK1-mCherry K465A) (human) (UniProt O15530); remark: listed apart in the source
[11] = molecular target: PDK1 R466A/K467A, full length (eGFP-myc-PDK1 and HA-PDK1-mCherry, both R466A/K467A) (human) (UniProt O15530)
[12] = molecular target: PDK1 R466A/K467A, full length (eGFP-myc-PDK1 and HA-PDK1-mCherry, both R466A/K467A) (human) (UniProt O15530); remark: listed apart in the source

B1: Isolated PH domain of PDK1, T513E (GFP- and mRFP-tagged) (domain or fragment, UniProt O15530 404-556)
chain: LPQRSGSNIEQYIHDLDSNSFELDLQFSEDEKRLLLEKQAGGNPWHQFVENNLILKMGPVDKRKGLFARRRQLLLTEGPHLYYVDPVNKVLKGEIPWSQELRPEAKNFKEFFVHTPNRTYYLMDPSGNAHKWCRKIQEVWRQRYQSHPDAAVQ
[1]
  binding: binds

B2: Isolated PH domain of PDK1, wild type (eGFP-myc-PH^PDK1 and mRFP-myc-PH^PDK1) (domain or fragment, UniProt O15530 404-556)
chain: LPQRSGSNIEQYIHDLDSNSFELDLQFSEDEKRLLLEKQAGGNPWHQFVENNLILKMGPVDKRKGLFARRRQLLLTEGPHLYYVDPVNKVLKGEIPWSQELRPEAKNFKTFFVHTPNRTYYLMDPSGNAHKWCRKIQEVWRQRYQSHPDAAVQ
[2]
  binding: binds

B3: 3'-Phosphoinositide-dependent kinase-1, wild type, full length (eGFP-myc-PDK1 and HA-PDK1-mCherry), O15530 1-556 (enzyme)
chain: MARTTSQLYDAVPIQSSVVLCSCPSPSMVRTQTESSTPPGIPGGSRQGPAMDGTAAEPRPGAGSLQHAQPPPQPRKKRPEDFKFGKILGEGSFSTVVLARELATSREYAIKILEKRHIIKENKVPYVTRERDVMSRLDHPFFVKLYFTFQDDEKLYFGLSYAKNGELLKYIRKIGSFDETCTRFYTAEIVSALEYLHGKGIIHRDLKPENILLNEDMHIQITDFGTAKVLSPESKQARANSFVGTAQYVSPELLTEKSACKSSDLWALGCIIYQLVAGLPPFRAGNEYLIFQKIIKLEYDFPEKFFPKARDLVEKLLVLDATKRLGCEEMEGYGPLKAHPFFESVTWENLHQQTPPKLTAYLPAMSEDDEDCYGNYDNLLSQFGCMQVSSSSSSHSLSASDTGLPQRSGSNIEQYIHDLDSNSFELDLQFSEDEKRLLLEKQAGGNPWHQFVENNLILKMGPVDKRKGLFARRRQLLLTEGPHLYYVDPVNKVLKGEIPWSQELRPEAKNFKTFFVHTPNRTYYLMDPSGNAHKWCRKIQEVWRQRYQSHPDAAVQ
[3]
  binding: binds
[4]
  binding: binds
[5]
  binding: binds

B4: PDK1 T513E, full length (GFP- and mCherry-tagged) (enzyme, UniProt O15530 1-556)
chain: MARTTSQLYDAVPIQSSVVLCSCPSPSMVRTQTESSTPPGIPGGSRQGPAMDGTAAEPRPGAGSLQHAQPPPQPRKKRPEDFKFGKILGEGSFSTVVLARELATSREYAIKILEKRHIIKENKVPYVTRERDVMSRLDHPFFVKLYFTFQDDEKLYFGLSYAKNGELLKYIRKIGSFDETCTRFYTAEIVSALEYLHGKGIIHRDLKPENILLNEDMHIQITDFGTAKVLSPESKQARANSFVGTAQYVSPELLTEKSACKSSDLWALGCIIYQLVAGLPPFRAGNEYLIFQKIIKLEYDFPEKFFPKARDLVEKLLVLDATKRLGCEEMEGYGPLKAHPFFESVTWENLHQQTPPKLTAYLPAMSEDDEDCYGNYDNLLSQFGCMQVSSSSSSHSLSASDTGLPQRSGSNIEQYIHDLDSNSFELDLQFSEDEKRLLLEKQAGGNPWHQFVENNLILKMGPVDKRKGLFARRRQLLLTEGPHLYYVDPVNKVLKGEIPWSQELRPEAKNFKEFFVHTPNRTYYLMDPSGNAHKWCRKIQEVWRQRYQSHPDAAVQ
[6]
  binding: binds
[7]
  binding: binds
[8]
  binding: binds

B5: PDK1 K465A, full length (eGFP-myc-PDK1 K465A and HA-PDK1-mCherry K465A) (enzyme, UniProt O15530 1-556)
chain: MARTTSQLYDAVPIQSSVVLCSCPSPSMVRTQTESSTPPGIPGGSRQGPAMDGTAAEPRPGAGSLQHAQPPPQPRKKRPEDFKFGKILGEGSFSTVVLARELATSREYAIKILEKRHIIKENKVPYVTRERDVMSRLDHPFFVKLYFTFQDDEKLYFGLSYAKNGELLKYIRKIGSFDETCTRFYTAEIVSALEYLHGKGIIHRDLKPENILLNEDMHIQITDFGTAKVLSPESKQARANSFVGTAQYVSPELLTEKSACKSSDLWALGCIIYQLVAGLPPFRAGNEYLIFQKIIKLEYDFPEKFFPKARDLVEKLLVLDATKRLGCEEMEGYGPLKAHPFFESVTWENLHQQTPPKLTAYLPAMSEDDEDCYGNYDNLLSQFGCMQVSSSSSSHSLSASDTGLPQRSGSNIEQYIHDLDSNSFELDLQFSEDEKRLLLEKQAGGNPWHQFVENNLILKMGPVDARKGLFARRRQLLLTEGPHLYYVDPVNKVLKGEIPWSQELRPEAKNFKTFFVHTPNRTYYLMDPSGNAHKWCRKIQEVWRQRYQSHPDAAVQ
[9]
  binding: binds weakly
[10]
  binding: binds

B6: PDK1 R466A/K467A, full length (eGFP-myc-PDK1 and HA-PDK1-mCherry, both R466A/K467A) (enzyme, UniProt O15530 1-556)
chain: MARTTSQLYDAVPIQSSVVLCSCPSPSMVRTQTESSTPPGIPGGSRQGPAMDGTAAEPRPGAGSLQHAQPPPQPRKKRPEDFKFGKILGEGSFSTVVLARELATSREYAIKILEKRHIIKENKVPYVTRERDVMSRLDHPFFVKLYFTFQDDEKLYFGLSYAKNGELLKYIRKIGSFDETCTRFYTAEIVSALEYLHGKGIIHRDLKPENILLNEDMHIQITDFGTAKVLSPESKQARANSFVGTAQYVSPELLTEKSACKSSDLWALGCIIYQLVAGLPPFRAGNEYLIFQKIIKLEYDFPEKFFPKARDLVEKLLVLDATKRLGCEEMEGYGPLKAHPFFESVTWENLHQQTPPKLTAYLPAMSEDDEDCYGNYDNLLSQFGCMQVSSSSSSHSLSASDTGLPQRSGSNIEQYIHDLDSNSFELDLQFSEDEKRLLLEKQAGGNPWHQFVENNLILKMGPVDKAAGLFARRRQLLLTEGPHLYYVDPVNKVLKGEIPWSQELRPEAKNFKTFFVHTPNRTYYLMDPSGNAHKWCRKIQEVWRQRYQSHPDAAVQ
[11]
  binding: binds
[12]
  binding: binds
